Assay results: PubChem BioAssay AID540275 (National Center for Advancing Translational Sciences (NCATS), 2011)
Among all 320,000 compounds or so, about 620 (0.19%) were called active. The shares of active, inactive and inconclusive entries below differ from those in the screen. Rule as the data show it: active = activation above about 80%; inconclusive = between about 30% and that limit; inactive = weaker than that.
Also: 0% is about no effect.

Sequences of proteins named here, by UniProt entry; tags and fusion partners are left off.
UniProt Q8NER1, whole entry, looked up: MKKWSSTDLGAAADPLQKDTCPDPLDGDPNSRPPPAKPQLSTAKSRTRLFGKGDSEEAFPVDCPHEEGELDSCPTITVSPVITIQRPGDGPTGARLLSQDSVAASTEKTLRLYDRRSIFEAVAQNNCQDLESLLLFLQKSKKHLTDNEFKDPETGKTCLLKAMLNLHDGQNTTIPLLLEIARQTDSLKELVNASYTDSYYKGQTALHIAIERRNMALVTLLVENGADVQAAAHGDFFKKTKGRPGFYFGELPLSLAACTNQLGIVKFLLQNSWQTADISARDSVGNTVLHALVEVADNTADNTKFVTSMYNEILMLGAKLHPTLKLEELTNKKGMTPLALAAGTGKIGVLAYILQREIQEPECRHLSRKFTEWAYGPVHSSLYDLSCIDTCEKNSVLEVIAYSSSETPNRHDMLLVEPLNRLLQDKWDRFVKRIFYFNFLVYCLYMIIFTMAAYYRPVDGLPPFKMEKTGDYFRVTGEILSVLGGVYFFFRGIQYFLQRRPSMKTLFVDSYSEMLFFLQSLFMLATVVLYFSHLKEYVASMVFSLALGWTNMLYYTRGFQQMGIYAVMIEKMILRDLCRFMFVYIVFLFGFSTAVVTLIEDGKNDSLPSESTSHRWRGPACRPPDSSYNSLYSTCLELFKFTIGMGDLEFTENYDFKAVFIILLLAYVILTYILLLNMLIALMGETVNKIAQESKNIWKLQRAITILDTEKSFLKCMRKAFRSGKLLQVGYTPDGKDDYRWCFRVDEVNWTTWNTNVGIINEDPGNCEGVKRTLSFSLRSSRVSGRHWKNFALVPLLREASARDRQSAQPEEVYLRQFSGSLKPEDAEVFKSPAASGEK

Each molecule was assayed against Transient receptor potential cation channel subfamily V member 1 (Homo sapiens) (UniProt Q8NER1) (assay: HTS Assay for Compounds that Act as Agonists of the Vanilloid Receptor 1). Details: TRPV1-expressing cells, Fluo-8 calcium influx, agonist mode; at 8.33 µM, stronger effect = higher value.
In short: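 Cells expressing TRPV1 were dye-loaded with Fluo-8 and read kinetically: 10 s baseline, 3 min after compound (agonist portion), then 2 min after EC20 capsaicin (allosteric enhancer portion). Calcium-bound dye fluorescence at 480/520 nm.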
In the case of `CCOc1ccc(S(=O)(=O)/N=C(\N)c2ccccc2)cc1`, the activation is reported as inactive: -0.457%.
For `CC(C)(C)C(=O)Nc1nnc(-c2ccccc2)c(-c2ccccc2)n1`, the activation was inactive: 16%.
In the case of `CCN(CC1COc2ccccc2O1)C(=O)c1ccc(Cl)c(S(=O)(=O)N2CC(C)OC(C)C2)c1` (centres undefined), the activation is reported as inconclusive: 31.8%.
`O=C(NCCCn1ccnc1)c1ccc(N2CCCCCC2)c([N+](=O)[O-])c1` was tested, and the activation was inconclusive: 35.3%.
`NS(=O)(=O)c1ccc(NC(=O)c2ccc3c(c2)OCO3)cc1` was tested, and the activation was inconclusive: 47.3%.
In the case of `Cc1ccc(CNc2oc(-c3ccco3)nc2C#N)cc1`, the activation is reported as inactive: 21.2%.
In the case of `CCCCCCCNC1=CC(=O)CC(c2ccccc2)C1` (centres undefined), the activation is reported as inactive: 21.6%.
`CC1(C)NC(=O)N(CCCCOc2cccc(C(F)(F)F)c2)C1=O` was tested, and the activation was inconclusive: 56.8%.
In the case of `O=C(Cc1ccc(Br)cc1)N1CCN(c2ccc(F)cc2)CC1`, the activation is reported as inconclusive: 63.7%.
For `Cc1ccccc1-n1nnnc1SCc1ncc(-c2ccccc2)o1`, the activation was inconclusive: 32.3%.
With `Cc1csc(SCC(=O)Nc2sc3c(c2C#N)CCC3)n1` the activation was inactive: -2.07%.
`O=C(c1cc(-c2ccco2)nn1-c1cccc(Cl)c1)N1CCCCC1` was tested, and the activation was inconclusive: 48.9%.
With `Cc1ccccc1OCC(=O)OCC(=O)NC1CCCCCC1` the activation was inconclusive: 33.6%.
For `Cc1cc(SCC(=O)OCC(=O)NCC2CCCO2)c(C)cc1Br` (centres undefined), the activation was inconclusive: 32.2%.
`CC(=O)NNc1ncnc2c1cnn2-c1ccc(C)c(Cl)c1` was tested, and the activation was inactive: 5.55%.
In the case of `O=C(N/N=C/c1ccc(Cl)cc1)c1cc2c(s1)-c1ccccc1CC2`, the activation is reported as inactive: -1.09%.
With `O=C(COC(=O)C1CC2C=CC1C2)NCc1ccccc1Cl` (centres undefined) the activation was inconclusive: 44%.
`O=C(Nc1cc(Cl)ccc1Oc1ccccc1)C1=COCCO1` was tested, and the activation was inactive: -2.98%.
`O=C(c1ccc(Cl)c(S(=O)(=O)N2CCCCCC2)c1)N1CCN(c2ccc(O)cc2)CC1` was tested, and the activation was inactive: 13.5%.
`CCCn1c(=O)[nH]c(=O)c2c1nc(-c1ccc3c(c1)OCCO3)n2CCN1CCOCC1` was tested, and the activation was inactive: -0.812%.
`CCc1ccc(NC(=S)NCc2ccccc2)cc1` was tested, and the activation was inconclusive: 39.6%.
For `Cc1ccc(OCc2nc(-c3ccc(Cl)cc3)n[nH]2)cc1`, the activation was inactive: 1.6%.
`O=C(NCCc1ccccc1)c1cnc2ccccc2n1` was tested, and the activation was inconclusive: 73.2%.
`Cc1ccc2cc(C)c3nnc(SCC(=O)c4cccs4)n3c2c1C` was tested, and the activation was inconclusive: 34.6%.
In the case of `Cc1ccc(NC(=O)CN(C)C(=O)Cn2ccsc2=N)cc1`, the activation is reported as inactive: -1.88%.
`COc1cc(CNc2ccc3[nH]c(=O)[nH]c3c2)ccc1OCc1ccc(F)cc1Cl` was tested, and the activation was inconclusive: 44.5%.
In the case of `Cc1nn(CCCC(=O)Nc2ccccn2)c(C)c1[N+](=O)[O-]`, the activation is reported as inactive: -1.27%.
In the case of `O=C(c1ccc2c(c1)OCCO2)C1CCN(C(=O)Nc2ccc(F)cc2)CC1`, the activation is reported as inconclusive: 76.1%.
`CC(=O)c1cccc(NC(=S)NCCCCc2ccccc2)c1` was tested, and the activation was inconclusive: 60.1%.
With `COC(=O)C1=C(C)N(c2ccccc2)/C(=C/c2cccs2)C1=O` the activation was inconclusive: 42.5%.
For `O=C(O)COc1ccc(/C=N/Nc2nc(Nc3ccccc3)nc(N3CCCCC3)n2)cc1`, the activation was inactive: 0.773%.
In the case of `COc1ccccc1Cn1c(C)nc2ccccc21`, the activation is reported as inactive: -0.425%.
For `COc1ccc(CN2CCC(C(=O)c3ccc(Cl)cc3)CC2)cc1`, the activation was inactive: 14.7%.
For `NCCSC1CC(=O)N(c2ccc(Cl)c(Cl)c2)C1=O` (centres undefined), the activation was inconclusive: 32.8%.
For `COc1cc2cnc(-c3ccccc3)c(-c3cc(OC)c(OC)c(OC)c3)c2cc1OC`, the activation was inconclusive: 50.6%.
With `O=C(Cc1ccccc1)NC(=S)Nc1ccc2oc(-c3ccccc3)nc2c1` the activation was inconclusive: 40.1%.
For `Cc1[nH]nc(N2CCCCCC2)c1[N+](=O)[O-]`, the activation was inactive: -3.64%.
`C=C(C)n1c(=O)n(Cc2ccc(C)cc2)c2ccccc21` was tested, and the activation was inactive: 9.43%.
`COCCC1CCCCN1C(=O)c1cc(COc2ccc(-n3cncn3)cc2)on1` (centres undefined) was tested, and the activation was inactive: 6.81%.
For `Cc1cc(NC(=O)CSc2nc3ccsc3c(=O)n2CCCC(=O)NCCc2ccccc2)no1`, the activation was inactive: -0.82%.
With `O=C(NCCC1=CCCCC1)c1ccc(Cl)c(S(=O)(=O)N2CCCCC2)c1` the activation was inconclusive: 62.9%.
For `Cc1ccc(C=C2C(=O)c3ccccc3C2=O)o1`, the activation was inactive: -0.987%.
For `O=S(=O)(c1ccc(F)cc1)c1nc(-c2ccco2)oc1Nc1ccc(F)cc1`, the activation was inconclusive: 43.6%.
For `O=Cc1cn(-c2ccccc2)nc1-c1ccc2c(c1)OCCO2`, the activation was inconclusive: 44.5%.
With `COc1ccc(/C=C/C(=O)Nc2ccc(-n3nncc3-c3ccc(OC)c(OC)c3)cc2)cc1OC` the activation was inactive: -4.6%.
For `CC(C)(C)c1ccc(C2CC2C(=O)N/N=C\c2ccc[nH]2)cc1` (centres undefined), the activation was inconclusive: 43.4%.
With `COc1ccc(-c2csc(NC3=NCCCCC3)n2)cc1` the activation was inconclusive: 53.6%.
With `CCOC(=O)c1cccc(NC(=O)c2ccc3c(c2)OCO3)c1` the activation was inconclusive: 59%.
`O=C(CSc1nnc(CNC(=O)c2ccc(F)cc2)o1)NCCc1ccccc1` was tested, and the activation was inactive: -4.88%.
With `CC(=O)N1CCN(c2ncnc3sc(-c4ccccc4)cc23)CC1` the activation was inactive: 26.6%.
`CC(C)(C)c1ccc(OC(=O)c2ccc3snnc3c2)cc1` was tested, and the activation was inconclusive: 33.6%.
For `CCC(C)(C)NC(=O)C(c1ccc(F)cc1)N(Cc1ccco1)C(=O)CCC(=O)Nc1ccccn1` (centres undefined), the activation was inconclusive: 31.6%.
In the case of `N#CC1=C(N2CCCCC2)c2cc3c(n2C1=O)CCCC3`, the activation is reported as inconclusive: 34.6%.
With `C=C1C2(C(=O)Nc3nccs3)CCC(C2)C1(C)C` (centres undefined) the activation was inactive: 3.01%.
In the case of `COc1cccc(OCc2cc(C(=O)N(C)Cc3nc4ccccc4[nH]3)no2)c1`, the activation is reported as inconclusive: 33%.
`COc1ccc2nccc(/C=C/c3ccnc4ccc(OC)cc34)c2c1` was tested, and the activation was inconclusive: 62.8%.
`C=CCN1C(=O)/C(=C/c2ccc(O)cc2)S/C1=N/c1nccs1` was tested, and the activation was inconclusive: 39.8%.
`COc1cc2[nH]c(=O)n(CCCC(=O)NCCc3ccccc3)c(=O)c2cc1OC` was tested, and the activation was inactive: 0.754%.
With `O=S(=O)(c1ccc2nc(SCc3cccc(Cl)c3)[nH]c2c1)N1CCOCC1` the activation was inconclusive: 64.9%.
